According to patent US20060121489:
Construct, isoform or probe ends are uncertain for at least one entry. Results from cells or extracts need not show a direct contact.

Tests used:
[1] = system: NF-kB in 70Z/3 pre-B cell nuclear extract (p50- or p105-containing complex); test: EMSA; conditions: 6 phosphorodithioate (S2) linkages: 5'-CCAGGAGATS2TS2CCAC-3' / 3'-GGS2TCCS2TCS2TAAGGS2TG-5'; single complex; anti-p50 supershift; protein in an extract
[2] = system: AP-1 family proteins in 70Z/3 nuclear extract (JunD, CREB, c-Jun, possibly ATF2); test: EMSA; conditions: 6 phosphorodithioate (S2) linkages: 5'-CCAGTS2GACTS2CAGTS2G-3' / 3'-GGS2TCACS2TGAGS2TCAC-5'; supershift: JunD, CREB, c-Jun, possibly ATF2; protein in an …

Sequence	binding result [1]	binding result [2]
CCAGGAGATTCCAC (double strand) [XBY-6]	binds	
CCAGTGACTCAGTG (double strand) [XBY-S2]		binds
